# Where “and” joins values, the source holds several entries; their conditions need not be identical. Identical values can stand only once. The shares of active, inactive and inconclusive entries below differ from those in the screen. Potencies of inconclusive entries are doubtful fits and often do not repeat. Calls of active or inactive are those of the source. The calls were made as follows: active = hit-call score of the fitted dose curve at least 0.9, where 1 is the maximum; inconclusive = response in the unintended direction; inactive = score below 0.9.
# Sequences of proteins named here, by UniProt entry; tags and fusion partners are left off.
# UniProt P04637, whole entry, looked up: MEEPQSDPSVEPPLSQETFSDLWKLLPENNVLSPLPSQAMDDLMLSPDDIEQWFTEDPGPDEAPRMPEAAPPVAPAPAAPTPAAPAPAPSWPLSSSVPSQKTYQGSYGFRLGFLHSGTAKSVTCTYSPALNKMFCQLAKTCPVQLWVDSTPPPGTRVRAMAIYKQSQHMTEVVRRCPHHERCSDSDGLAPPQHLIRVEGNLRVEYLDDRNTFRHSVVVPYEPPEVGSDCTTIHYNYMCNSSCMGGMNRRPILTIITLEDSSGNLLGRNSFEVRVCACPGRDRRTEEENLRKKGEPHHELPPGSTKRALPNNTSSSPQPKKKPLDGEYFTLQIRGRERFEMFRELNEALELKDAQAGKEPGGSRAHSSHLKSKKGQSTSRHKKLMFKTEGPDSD
# Molecular target: Cellular tumor antigen p53 (Homo sapiens) (UniProt P04637)
# Test: TOX21_p53_BLA_p4_ratio: Tox21 HCT-116 p53 Agonism Beta-lactamase Assay, Ratio, Phase 4 (AID 2283601)
# Text: TOX21_p53_BLA_p4 is a cell-based, single-readout assay that uses HCT116, a human intestinal cell line, […] in a 1536-well plate.TOX21_p53_BLA_p4_ratio is an assay readout measuring reporter gene via receptor activity and designed using inducible reporter (beta lactamase induction) detected with GAL4 b-lactamase reporter gene. The signal is derived from the ratio of cleaved (ch2) to uncleaved (ch1)reporter gene substrate used as the measure of target activity.Data from the assay component TOX21_p53_BLA_p4_ratio was analyzed into 1 assay endpoint. This assay endpoint, TOX21_p53_BLA_p4_ratio, was analyzed in the positive analysis fitting direction relative to DMSO as the negative control and baseline of activity. Using a type of inducible reporter, gain-of-signal activity can be used to understand changes in the reporter gene as they relate to the gene TP53. Furthermore, this assay endpoint can be referred to as a primary readout, because this assay has produced multiple assay endpoints where this ratio serves a reporter gene function to understand target activity. To generalize the intended target to other relatable targets, this assay endpoint is annotated to the DNA binding intended target family, where the subfamily is tumor suppressor.
# Thawing Method: Place 14 mL of pre-warmed thaw medium into a 15 mL of conical tub. Remove the vial of cells to be thawed from liquid nitrogen and thaw rapidly by placing at 37C in a water bath with gentle agitation for 1-2 minutes. Decontaminate the vial by wiping with 70% ethanol before opening in a biological safety cabinet. Transfer the vial contents drop-wise into 14 mL of thaw medium in a sterile 15-mL conical tub. Centrifuge cells at 900 rpm for 4 minutes and resuspend in thaw medium. Transfer contents to the T75 tissue culture flask containing Thaw Medium and place flask in a humidified 37C/5% CO2 incubator. Switch to growth medium at first passage.Propagation Method: Aspirate medium, rinse once in DPBS, add 0.25% Trypsin/EDTA and swirl to coat the cell evenly. Add an equal volume of Growth Medium to inactivate Trypsin after 2-3 minutes incubation at 37C. Centrifuge cells at 900 rpm for 4 minutes and resuspend in growth medium. Cell should be passage or fed at least twice a week.Assay Protocol: Harvest cells from culture in growth medium and resuspend in assay medium. 2.2 Dispense 4000 cells/5 uL/well into 1536-well black/clear bottom plates using a Multidrop dispenser. After the cells were incubated at 37C for 5 hours, 23 nL of compounds dissolved in DMSO were transferred to the assay plate by a PinTool resulting in a 217-fold dilution. Incubate the plates for 16 hours at 37C, 5% CO2. Add 1 uL of 6X LiveBLAzer FRET B/G (CCF4-AM) Substrate Mixture to each well using a BioRAPTR dispenser and incubate the plates at room temperature for 2 hours. Measure fluorescence intensity at 460 and 530 nm emission and 405 nm excitation by an Envision detector. Data is expressed as the ratio of 460nm/530nm emissions. Add 4 uL of Cell-titer Glo to each well using BioRAPTR and incubate the plates at room temperature for 2 hours. Measure fluorescence intensity by a VewLux plate reader.
SMILES,AC50,outcome
C[C@@H](O)[C@H]1C(=O)N2C(C(=O)[O-])=C(SC3Cn4cnc[n+]4C3)[C@H](C)[C@H]12 (stereo not given in full),inconclusive: 23 µM,–
C=CCOc1ccc(CC(=O)O)cc1Cl,–,inactive
CC(C)(C)C1(O)CCN2CC3c4ccccc4CCc4cccc(c43)C2C1 (stereo not given),inconclusive: 35.8 µM,–
OCCN(CCO)CCN(CCO)CCO,inconclusive: 46.1 µM,–
CC(=O)Oc1ccc([N+](=O)[O-])cc1CCl,inconclusive: 46.1 µM,–
N=C(N)c1ccc2cc(OC(=O)c3ccc(N=C(N)N)cc3)ccc2c1,inconclusive: 23 µM,–
CS(=O)(=O)c1ccc([C@@H](O)[C@@H](CF)NC(=O)C(Cl)Cl)cc1,inconclusive: 10.3 µM,–
COc1ccc(/C=C/C(=O)Nc2ccccc2C(=O)O)cc1OC,inconclusive: 13 µM,–
CC(=O)Nc1ccc(C)c(Cl)c1,inconclusive: 46.1 µM,–
CCc1cn([C@H]2C[C@H](O)[C@@H](CO)O2)c(=O)[nH]c1=O,–,inactive
CCCc1cc(C(N)=S)ccn1,inconclusive: 38.6 µM,–
O=C(CCCCC(=O)Nc1c(I)cc(I)c(C(=O)O)c1I)Nc1c(I)cc(I)c(C(=O)O)c1I,inconclusive: 41.3 µM,–
Cc1cc(C)c(C=C2C(=O)Nc3ccccc32)[nH]1,inconclusive: 34.1 µM,–
COc1cc(C(=S)N2CCOCC2)cc(OC)c1OC,inconclusive: 23 µM,–
C1=CC2C3C=CC(C3)C2C1 (stereo not given) (tested in a mixture with another compound),inconclusive: 23 µM,–
C1CCCC1,–,inactive
CC(=O)Nc1ccccc1C,inconclusive: 58.9 µM,–
C[S+](C)CCC(N)C(=O)O (stereo not given),inconclusive: 23 µM,–
CCCCCCCCCCCC(=O)N(CC)CC,inconclusive: 46.1 µM,–
CCOC(=N)CC(=O)OCC,inconclusive: 46.1 µM,–

SMILES,AC50,outcome
CC(C)(C)NCC(O)COc1ccc(NC(=O)NC2CCCCC2)cc1 (stereo not given),inconclusive: 23 µM,–
CC(=O)NCCCS(=O)(=O)O,inconclusive: 23 µM,–
C1COC1,inconclusive: 45.1 µM,–
Cc1c(Nc2ncccc2C(=O)O)cccc1C(F)(F)F,–,inactive
Clc1ccc2cc3ccccc3cc2c1,inconclusive: 46 µM,–
NC(=O)c1ccncc1,–,inactive
CC(CNC1CCCCC1)OC(=O)c1ccccc1 (stereo not given),inconclusive: 10.3 µM,–
O=C(O)[C@@H]1C[C@H](CP(=O)(O)O)CCN1,inconclusive: 23 µM,–
CC(C)[C@@H](N)C(=O)O,–,inactive
CCOC(=O)CC(=O)c1cc(F)c(Cl)nc1Cl,–,inactive
CC=C(C)C#N,inconclusive: 45.5 µM,–
Cc1onc(-c2c(F)cccc2Cl)c1C(=O)N[C@@H]1C(=O)N2[C@@H]1SC(C)(C)[C@@H]2C(=O)O,inconclusive: 23 µM,–
O=C(NCC1CCCCN1)c1cc(OCC(F)(F)F)ccc1OCC(F)(F)F (stereo not given),–,inactive
C(=C/c1ccccc1)/c1ccccc1,inconclusive: 46.7 µM,–
CCOc1cc(OCC)c(C(C)=O)cc1OCC,inconclusive: 45.4 µM,–
N#CCC(=O)O,inconclusive: 46.1 µM and inconclusive: 81.4 µM,–
OCCN1CCN(CC/C=C2/c3ccccc3Sc3ccc(Cl)cc32)CC1,inconclusive: 10.3 µM,–
CC(C)CCCO,–,inactive
COC(=O)[C@H]1[C@H]2C[C@@H]3c4[nH]c5cc(OC)ccc5c4CCN3C[C@H]2C[C@H](OC)[C@@H]1OC,inconclusive: 44.7 µM,–

# — PubChem BioAssay (EPA / NIEHS)
